For data set [1], the system named is absolute alcohol-induced ulcer in rats. Description: Antiulcerogenic activity, absolute ethanol-induced ulcer model. The data set is classed as in vivo, male Wistar rats. Particulars: for ulcer index: mean, n=6. Here is the method: Evaluation of the anti-ulcerogenic activity was carried out using absolute ethanol-induced ulcer model (Bighettia A. E., Antonio M. A., Kohna L. K., Rehdera V. L. G., Foglioa M. A., Possentia A., Vilelaa L., Carvalho J. E. (2005). Antiulcerogenic activity of a crude hydroalcoholic extract and coumarin isolated from Mikania laevigata Schultz Bip. Phytomedicine, 12, 72-77). Thirty male Wistar rats were divided into 5 groups each of 6 rats. Group 1 received the vehicle and served as control, group 2 received ranitidine (100 mg/kg) and served as standard, groups 3, 4 and 5 received the synthesized compound at doses 25, 50 and 100 mg/kg respectively.
Rats of all groups were fasted for 24 h then all medications were administered orally. One hour after treatment, the animals received an oral dose of absolute ethanol (1 ml/200 g) and then sacrificed one hour later, by ether inhalation, the stomachs were rapidly removed, opened along their greater curvature and gently rinsed under running tap water.
Number of lesions in the glandular part of the stomach were measured under an illuminated magnifying microscope (10×). Long lesions were counted and their lengths were measured. Petechial lesions were counted, and then each five petechial lesions were taken as 1 mm of ulcer.
The lesion scores: The mucosal lesions were quantified by the scoring system (0-5) 0=no damage, 1=Local edema and inflammation without ulcers; 2=One ulcer without inflammation; 3=one to two ulcers with inflammation & lesion diameter <1 cm; 4=More than two ulcers with lesion diameter 1-2 cm; 5=Sever ulceration with lesion diameter >2 cm (Morris et al., 1989).
Ulcer index: To calculate the ulcer index (mm), the sum of the total length of long ulcers and petechial lesions in each group of rats was divided by its number. The curative ratio was determined according to the formula: % Protection of control ulcer=Control UI−Test UI/Control UI×100

Another data set has as its system Swiss albino mice. Particulars: oral, doses up to 1000 mg/kg, within 24 h.

Marks after values point to notes of the source that are not given here.

`CC(C)CC(NCC(=O)Nc1ccc(S(N)(=O)=O)cc1)C(=O)O` (centres unmarked) [Compound 5, 4-Methyl-2-[2-oxo-2-(4-sulfamoylphenylamino)ethylamino]pentanoic acid]: the ulcer index is on record as 9.1** mm in data set [1] (oral 25 mg/kg), 4.48** mm in data set [1] (oral 50 mg/kg) and 3.64*** mm in data set [1] (oral 100 mg/kg). For the same compound, in data set [1] (oral 100 mg/kg), the “effectiveness versus standard ranitidine in reducing ulcer index and ulcer score” value was “significantly more effective than the standard”. Further, in the data set with Swiss albino mice, the “behavioral changes and mortality (acute toxicity)” value was “did not produce any behavioral changes and mortality”.
